Reference: PMC7891422 (Chembiochem, 2020)
One purity is given for all peptides; the source may state it once.

Assay: general procedure: Fmoc solid-phase peptide synthesis; TGR RAM resin; DIC/HOBt
Conditions: whole synthesis, analytical reversed-phase HPLC on at least two columns (Jupiter Proteo, Kinetex Biphenyl, Aeris Peptide)

Substance	final HPLC purity [%]
K-Wrf-FwLL-NH2	>95
K-Wsf-FwLL-NH2	>95
